Experimental data reported in publication PMC4238974.
These are yes or no findings as the source states them, for the method shown. In cells and extracts the contact can be indirect. A result given as binding can be weak or reduced; the word gives no strength. Tags and fused reporters may be left off the sequences shown.

Target: MEK-2-mCherry (Neurospora crassa)
Experiment: co-IP; lysate of 5 hr-old N. crassa germlings; anti-mCherry antibody covalently bound to Protein G Dynabeads, overnight at 4°C, washed three times with PBS; blot probed with anti-GFP antibodies

binding	Binder
binds	HAM-5^Δ67-348-GFP (HAM-5 without the WD40 motifs) (protein, UniProt V5IN79) MSVPGHISRSRTGSIPASSKGRTAHMQDFAMAPTPSAVPRYFEPCAATASMFLYAQGSSIVCCHHDPANMLPPSPPISLEEQEKSQTVMHHNADHGVPIAIHADLSESDDHMSPLARLVQGQSEPDRYRPTSPTSSRSRSSVSITSSNSNTQGRNQYAPSAVSRGMTENTYISAGSSLRSGLPGQDHRYRRDRESLSTTSSVSMGSSNYRSRRPSRLRHEVPRSPDDAKVVDLFKFTKSRLQDMPYKTPQISDGVRLTNDDLRRQMLSTIFGWNKEIEDLIRDEMSRHPLGSTNRILLAKWLGDITTDIMAMGSENMTSSDWMLLALSGIGGQASQHKLGRAYVQRLLESGDVHAAATIMIGLGDHNDAIEIYVSHKKYMEALILTCLFFPSTWERQVQIVRKWGEWAVQHGQQQLAIRCFACTGHESTEPWTSPSAQQITFGSISATVNEVTSPPLSPPARNHGPQRSVAKNSALKLITTFGDNKSKFFSGHDDGRTPIAAGATPIVQSALSPGGADPTTAVLRNNRSQFNTPSSARPPNGGFGRHRLPSIGEATQDNRELLTAISKPVGDPYANIMSFEVSDHRTPGYDLPRAQTASPRVFKDAKAPPPPSPSPAAVAALMDGRQRRNGSRSRIPEGLDLSLPVHNDTRHDEPSSPEQSGNSISNAQYHWPSRRKGPGSVASSATSASATSSVRGYRSHVPGKSMDKYYHSLEAAGSSRNARGTSRDGHGNGRDTSRSRRNDGDLSRDRGRGSSRGYTPKGGKRSPKSPVPMSPEDLINLATPREDLEQLGHGKGRLIDFSDEQDQPSVAKKVTTRRETSRVRMASRGASRNGRSSSRARSSERRKPPALDLRGREASREGSRQRSPSSPVPMSGQAAHFYGSEDEEDYRRALEDREKFRQRHNRSVSKNGRGESITSPISGRGHDWGGRERSTSRQRSDKRSESHQTDRRQRIPAPMPTPAPMQLVTDSSGDLKVMMNERQLKKEQAQRELEERRRSLARRPSAPPILHPDELTPARLDTVMELPSTVFVPPRREDMPARSASVDPNSQGAGRSMYANRGPSIGLPATPKAMRLVLGSDASRNNVPVPAIPANFQQSSAASSNQASPDKVSQRQVELKQQEVEPPMKSPAMLLPSTVYTPPTSAFNRPFIQRSMSAPPQDLVPPQAGALSNLRGFHAQQPSVGGEPKPLMGRRPSHDAGRNDGPIPPPPPPPPAPPMLRELQHLAAPPPPPPAPLPHLAGAKPVVYGGSSGMIEIVMDDDQPQQPPQQPQQQPPPPPMLLPSTSYTPVNTAPIPKEIVVPILSPPAPSSRNGHARGRSSIDHSIGGRISRVTERMRSASRSRGAMRDNQAAPMIPAPYESVPMPGMSQSMNFHMRAAAAAAAQQQPGQSDFKTGLHHSEMI
no binding	HAM-5^1-351-GFP (WD40 domain only) (domain or fragment, UniProt V5IN79 1-351) MSVPGHISRSRTGSIPASSKGRTAHMQDFAMAPTPSAVPRYFEPCAATASMFLYAQGSSIVCCHHDSLSIERRFARHTEEVQLLAVDNLSEMGTGRLVVSYDAGQTAIVWDLMTGDEVARFASYENLTCAAWMHNGNVAFGNIQGNVILFEPTTSEHISARTIDQIAITAIAPAADCRTFAIGYQNGSLLIATLQPRFTILHNLTTSRGPSPIVTLAWHASSSRQKSDMLAVQTHDGDLRVWSVSKQYNADDPAKVVRILKRTENYLTGPNWMGWSKNGRIIQYSEGETISWDVRTKHVTYDTIPTLEHARGLAVYGPGATLFTLGANNSVQQFDLNAPAMMVNNVQHPAN
